From paper PMC8467918

Protein sequences, listed by entry. Tags and fused reporters are not part of them. Lines headed by an entry give the natural chain unless they say otherwise; changes in a name come on top.
UniProt Q04609: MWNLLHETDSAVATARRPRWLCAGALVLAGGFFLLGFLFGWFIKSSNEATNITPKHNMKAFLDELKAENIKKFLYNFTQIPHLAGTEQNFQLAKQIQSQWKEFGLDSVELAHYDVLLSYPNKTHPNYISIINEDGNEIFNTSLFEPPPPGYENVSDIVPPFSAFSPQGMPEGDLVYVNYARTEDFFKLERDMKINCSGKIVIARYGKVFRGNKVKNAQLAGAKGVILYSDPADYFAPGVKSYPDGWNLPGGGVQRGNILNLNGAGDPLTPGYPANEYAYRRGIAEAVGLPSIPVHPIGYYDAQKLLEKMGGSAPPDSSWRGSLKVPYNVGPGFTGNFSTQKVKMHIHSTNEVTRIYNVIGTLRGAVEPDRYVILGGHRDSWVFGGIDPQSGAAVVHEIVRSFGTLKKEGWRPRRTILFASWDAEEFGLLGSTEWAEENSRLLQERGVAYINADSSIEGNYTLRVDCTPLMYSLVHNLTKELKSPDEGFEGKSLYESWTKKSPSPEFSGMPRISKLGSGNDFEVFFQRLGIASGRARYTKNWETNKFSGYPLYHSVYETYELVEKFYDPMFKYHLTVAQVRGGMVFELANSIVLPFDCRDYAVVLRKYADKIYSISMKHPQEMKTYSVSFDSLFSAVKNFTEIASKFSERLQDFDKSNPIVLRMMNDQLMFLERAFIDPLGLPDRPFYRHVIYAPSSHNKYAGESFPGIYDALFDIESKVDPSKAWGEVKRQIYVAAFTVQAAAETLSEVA

Target: PSMA (prostate-specific membrane antigen) on plasma small extracellular vesicles (UniProt Q04609)
Experiment: pull-down of Vibrant-DiI-labelled SEVs on aptamer beads, flow cytometry
Details: no-aptamer azide beads as negative control, binding to whole vesicles, not isolated PSMA; 5'-DBCO, clicked to azide magnetic beads; Bead functionalization: 1 ug SPMB in 100 uL PBS, 1 pM aptamer, 10% DMSO, RT, 3 h; native protein; single-stranded DNA

GAATTCGCGTTTTCGCTTTTGCGTTTTGGGTCATCTGCTTACGATAGCAATGCT [PSMA-Apt]
binding result: binds

Construct, isoform or probe ends are uncertain for at least one entry. At least one verdict was read from the data and is not stated in words by the source.
